Test results published in PMC10967246.
Results are given in words; binding and its absence hold for the method and conditions named. Sequences can lack the tags named with a protein.

Target: TTP1 without transit peptide, split-ubiquitin yeast two-hybrid fusion (Arabidopsis)
Experiment: two-hybrid; split-ubiquitin yeast two-hybrid; proteins without transit peptide; bait vector pDHB1MCS2, prey vector met25pXCgate; selection without histidine, uracil, leucine and tryptophan, 20 mM 3-aminotriazole, 3 d at 30 °C

B1: FLU without transit peptide, split-ubiquitin yeast two-hybrid fusion (protein, UniProt Q940U6 27-316)
chain: APEIGKFATSIGYSVVRKPGDHPPFSKIIHSSSQPKERQGKGILQTPFASVGSLDKFSAFEGIGRLKLPVMAVLLTNSLQMATPLEALAAEICEPESSMFSMPILLLVALIGATVGGLLARQRKGELQRLNEQLRQINAALRRQAKIESYAPSLSYAPVGARIPDSEIIVEPKKQELISKLKTGKTFLRNQEPEKAYTEFKIALELAQSLKDPTEEKKAARGLGASLQRQGKYREAIQYHSMVLAISKRESEDSGITEAYGAIADCYTELGDLEKAGKFYDTYIARLETD
With B1 the binding was “no binding”.
